PubChem BioAssay AID602196 – INSERM – 2012
Aim: 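Knock-downs that protect lung cancer cells from cisplatin or sensitise them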. Cells: human A549 lung cancer cells. Knock-down reagent: siRNA pair against human genes. Time to read-out: 48 h transfection before cisplatin; time from cisplatin to read-out not stated. Challenge: cisplatin at a dose killing half of control-siRNA cells; exact dose and duration not given. Read-out: 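Cisplatin cell death as a shift from the 50% death seen with control siRNA; siRNAs toxic or growth-blocking alone scored 0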. Direction: two-siRNA summed score (-2 to +2): higher = both siRNAs protect from cisplatin killing; -2 means both sensitise; mean protection from cisplatin (shift in death) and protection from cisplatin (shift in death), siRNA C: higher = protection from cisplatin killing. Rule for the call: 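Each siRNA scores 0 if harmful alone by LDH or WST-1, otherwise +1 if it reduces and -1 if it increases cisplatin killing; a gene is active when both siRNAs agree (sum +2 or -2)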. Calls: active = both siRNAs shift cisplatin killing the same way; inactive = no consistent shift, or siRNA harmful alone.
The deposit covers about 23,000 reagents; below is an unselected part. 455 of them (2%) were called active. 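Active includes both protection and sensitisation; some change values fall well beyond the stated -50 to +50 range.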 Unmarked entries are inactive. Not all columns of the deposit are shown. Not given: the amount of reagent.

gene knocked down,PubChem SID,two-siRNA summed score (-2 to +2),mean protection from cisplatin (shift in death) (%),"protection from cisplatin (shift in death), siRNA C (%)"
BOP1,SID131508040,0,0.6,-0.6
CDCA7L,SID131520330,1,9.5,1.3
BLOC1S5,SID131502030,-1,-5.8,7.9
LOC400946,SID131511505,0,4.4,-0.8
TBP,SID131501137,-1,-12.1,0.1
MTA2,SID131514710,0,8.2,-2.2
FTCD,SID131519539,1,6.2,0.4
GFRA1,SID131522642,1,21.1,20
LUZP2,SID131512258,0,5.3,7.7
SLC25A36,SID131500662,-1,-18.2,-35.8
TEDC2,SID131514571,0,8,11.8
LRRC2,SID131518511,0,20.7,22.8
PHOX2B,SID131519716,1,7.1,-0.7
LOC389757,SID131511778,0,4.7,-2.1
ETV6,SID131511749,0,4.7,6.9
CACYBP,SID131501578,-1,-8.9,-2.6
NEDD1,SID131512940,0,6,-5.5
FAIM2,SID131506856,0,-0.9,-1.4
USP44,SID131508756,0,1.4,-1.6
LOC387833,SID131515235,0,8.9,11.6
POLR1F,SID131507374,0,-0.2,-7.5
LOC389633,SID131515641,0,9.5,11.3
MMP17,SID131509391,0,2.1,1.2
ARAP2,SID131507044,0,-0.6,-2.2
ECI2,SID131521007,1,11.8,2.9
NKX2-8,SID131503118,0,-13.3,-19.6
LINC00937,SID131506946,0,-0.8,0
LOC440140,SID131514198,0,7.5,2.3
MYOM2,SID131501227,-1,-11.3,-2.1
AMZ2,SID131500678,-1,-17.9,-3.9

Just “protection from cisplatin (shift in death), siRNA C (%)” (7 entries from above):
CACYBP [SID131501578]: -2.6
NEDD1 [SID131512940]: -5.5
FAIM2 [SID131506856]: -1.4
USP44 [SID131508756]: -1.6
LOC387833 [SID131515235]: 11.6
POLR1F [SID131507374]: -7.5
LOC389633 [SID131515641]: 11.3

The results go on:
gene knocked down,PubChem SID,two-siRNA summed score (-2 to +2),mean protection from cisplatin (shift in death) (%),"protection from cisplatin (shift in death), siRNA C (%)"
ZNF610,SID131504652,0,-4.8,-9.1
LOC401943,SID131510549,0,3.4,5.5
TRIT1,SID131504192,0,-6.2,-11.9
NUP93,SID131506994,0,-0.7,-0.9
GAS2L1P2,SID131516699,0,11.4,8.8
KRTDAP,SID131522067,1,16.1,30.6
NOC4L,SID131501774,-1,-7.4,-17.2
IL17REL,SID131516381,0,10.8,1.2
LINC01547,SID131503454,0,-9.9,-15.9
LINC01547,SID131516237,0,10.5,13.4
LOC139046,SID131513068,0,6.2,3.5
HK2,SID131511967,0,5,3
TMEM178A,SID131510351,0,3.2,0
RPS4Y2,SID131515066,0,8.6,9.1
NCKAP1L,SID131518605,0,22.5,36.6
CEP192,SID131522606,1,20.5,28.6
CHST14,SID131514803,0,8.3,2.5
TAF5,SID131515938,0,9.9,4.3
ZC3HAV1,SID131513966,0,7.2,8.9
LOC391362,SID131521877,1,15.3,0.1
LOC401613,SID131521478,1,13.7,17.7
CTDSP2,SID131504342,0,-5.7,-4.8
AJAP1,SID131516948,0,12,5.5
LOC127150,SID131521799,1,14.9,11.7
MPZL1,SID131505659,0,-2.8,0
LOC389321,SID131517909,0,15.3,20.6
MMP26,SID131501032,-1,-13.1,-7.3
